# Measurements taken from the supplement of paper PMC8728848.
# This is one part of the list.
# B1: BIp1-His (Cryptococcus neoformans) (protein)
# chain: MFTKIFVALFAATAVLSAPVESAEKRITHTGRATFYSPSVGIGACGWQNTDEELVVALNAPQYALNADHNCGQSVRITNEQNGNQEIAKVVDLCPGCNDGDLDMSPALFGALNNNDFDQGVFPISWNFLPRDDTSSSN
# How the values were obtained:
# Test in all cases: glycan array binding signal (z-score within array); higher = stronger binding
# Settings in all cases: glycan notation: IUPAC condensed, linker removed
# Gal(a1-6)Glc = biological target: Gal(a1-6)Glc
# Procedure, shortened: (§1)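 From the Consortium for Functional Glycomics database, 3228 arrays were curated, keeping only those whose protein sequence was available. Binding is given as a within-array Z-score averaged across arrays sharing a protein sequence and across linkers. Negative Z-scores can be read as non-binding.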
# Gal(b1-2)Gal = biological target: Gal(b1-2)Gal
# Procedure, shortened: as §1
# Gal(b1-3)Gal = biological target: Gal(b1-3)Gal
# Procedure, shortened: as §1
# Gal(b1-3)Gal(b1-4)GlcNAc = biological target: Gal(b1-3)Gal(b1-4)GlcNAc
# Procedure, shortened: as §1
# Gal(b1-3)GalNAc = biological target: Gal(b1-3)GalNAc
# Procedure, shortened: as §1
# [1] = biological target: Gal(b1-3)GalNAc(a1-3)[Fuc(a1-2)]Gal(b1-4)Glc
# Procedure, shortened: as §1
# [2] = biological target: Gal(b1-3)GalNAc(a1-3)[Fuc(a1-2)]Gal(b1-4)GlcNAc
# Procedure, shortened: as §1
# Gal(b1-3)GalNAc(b1-3)Gal = biological target: Gal(b1-3)GalNAc(b1-3)Gal
# Procedure, shortened: as §1
# [3] = biological target: Gal(b1-3)GalNAc(b1-3)Gal(a1-4)Gal(b1-4)Glc
# Procedure, shortened: as §1
# [4] = biological target: Gal(b1-3)GalNAc(b1-4)Gal(b1-4)Glc
# Procedure, shortened: as §1
# [5] = biological target: Gal(b1-3)GalNAc(b1-4)[Neu5Ac(a2-3)]Gal(b1-4)Glc
# Procedure, shortened: as §1
# Gal(b1-3)GlcNAc = biological target: Gal(b1-3)GlcNAc
# Procedure, shortened: as §1
# [6] = biological target: Gal(b1-3)GlcNAc(a1-3)Gal(b1-4)GlcNAc
# Procedure, shortened: as §1
# [7] = biological target: Gal(b1-3)GlcNAc(a1-6)Gal(b1-4)GlcNAc
# Procedure, shortened: as §1
# Gal(b1-3)GlcNAc(b1-2)Man = biological target: Gal(b1-3)GlcNAc(b1-2)Man
# Procedure, shortened: as §1
# [8] = biological target: Gal(b1-3)GlcNAc(b1-2)Man(a1-3)[Gal(b1-3)GlcNAc(b1-2)Man(a1-6)]Man(b1-4)GlcNAc(b1-4)GlcNAc
# Procedure, shortened: as §1
# [9] = biological target: Gal(b1-3)GlcNAc(b1-2)Man(a1-3)[Gal(b1-3)GlcNAc(b1-2)Man(a1-6)]Man(b1-4)GlcNAc(b1-4)[Fuc(a1-6)]GlcNAc
# Procedure, shortened: as §1
# [10] = biological target: Gal(b1-3)GlcNAc(b1-2)Man(a1-3)[GlcNAc(b1-4)][Gal(b1-3)GlcNAc(b1-2)Man(a1-6)]Man(b1-4)GlcNAc(b1-4)GlcNAc
# Procedure, shortened: as §1
# [11] = biological target: Gal(b1-3)GlcNAc(b1-2)[Gal(b1-3)GlcNAc(b1-6)]Man(a1-6)[Gal(b1-3)GlcNAc(b1-2)Man(a1-3)]Man(b1-4)GlcNAc(b1-4)GlcNAc
# Procedure, shortened: as §1
# [12] = biological target: Gal(b1-3)GlcNAc(b1-3)Gal(b1-3)GlcNAc
# Procedure, shortened: as §1
# [13] = biological target: Gal(b1-3)GlcNAc(b1-3)Gal(b1-4)Glc
# Procedure, shortened: as §1
# [14] = biological target: Gal(b1-3)GlcNAc(b1-3)Gal(b1-4)GlcNAc
# Procedure, shortened: as §1
# [15] = biological target: Gal(b1-3)GlcNAc(b1-3)Gal(b1-4)GlcNAc(b1-2)Man(a1-3)[Gal(b1-3)GlcNAc(b1-3)Gal(b1-4)GlcNAc(b1-2)Man(a1-6)]Man(b1-4)GlcNAc(b1-4)GlcNAc
# Procedure, shortened: as §1
# [16] = biological target: Gal(b1-3)GlcNAc(b1-3)Gal(b1-4)GlcNAc(b1-2)[Gal(b1-3)GlcNAc(b1-3)Gal(b1-4)GlcNAc(b1-6)]Man(a1-6)[Gal(b1-3)GlcNAc(b1-3)Gal(b1-4)GlcNAc(b1-2)Man(a1-3)]Man(b1-4)GlcNAc(b1-4)[Fuc(a1-6)]GlcNAc
# Procedure, shortened: as §1
# [17] = biological target: Gal(b1-3)GlcNAc(b1-3)Gal(b1-4)GlcNAc(b1-3)Gal(b1-4)GlcNAc(b1-2)[Gal(b1-3)GlcNAc(b1-3)Gal(b1-4)GlcNAc(b1-3)Gal(b1-4)GlcNAc(b1-6)]Man(a1-6)[Gal(b1-3)GlcNAc(b1-3)Gal(b1-4)GlcNAc(b1-3)Gal(b1-4)GlcNAc(b1-2)Man(a1-3)]Man(b1-4)GlcNAc(b1-4)[Fuc(a1-6)]GlcNAc
# Procedure, shortened: as §1
# [18] = biological target: Gal(b1-3)GlcNAc(b1-3)Gal(b1-4)GlcNAc(b1-6)[Gal(b1-3)GlcNAc(b1-3)]Gal(b1-4)Glc
# Procedure, shortened: as §1
# [19] = biological target: Gal(b1-3)GlcNAc(b1-3)Gal(b1-4)[Fuc(a1-3)]GlcNAc
# Procedure, shortened: as §1
# [20] = biological target: Gal(b1-3)GlcNAc(b1-3)Gal(b1-4)[Fuc(a1-3)]GlcNAc(b1-6)[Gal(b1-3)GlcNAc(b1-3)]Gal(b1-4)Glc
# Procedure, shortened: as §1
# [21] = biological target: Gal(b1-3)GlcNAc(b1-3)GalNAc
# Procedure, shortened: as §1
# [22] = biological target: Gal(b1-3)GlcNAc(b1-6)Gal(b1-4)GlcNAc
# Procedure, shortened: as §1
# [23] = biological target: Gal(b1-3)GlcNAc(b1-6)GalNAc
# Procedure, shortened: as §1
# [24] = biological target: Gal(b1-3)GlcNAc(b1-6)[Gal(b1-3)]GalNAc
# Procedure, shortened: as §1
# Gal(b1-3)GlcNAc6S = biological target: Gal(b1-3)GlcNAc6S
# Procedure, shortened: as §1
# [25] = biological target: Gal(b1-3)[Fuc(a1-4)]GlcNAc
# Procedure, shortened: as §1
# [26] = biological target: Gal(b1-3)[Fuc(a1-4)]GlcNAc(b1-2)Man
# Procedure, shortened: as §1
# [27] = biological target: Gal(b1-3)[Fuc(a1-4)]GlcNAc(b1-2)Man(a1-3)[Gal(b1-3)[Fuc(a1-4)]GlcNAc(b1-2)Man(a1-6)]Man(b1-4)GlcNAc(b1-4)[Fuc(a1-6)]GlcNAc
# Procedure, shortened: as §1
# [28] = biological target: Gal(b1-3)[Fuc(a1-4)]GlcNAc(b1-3)Gal(b1-3)[Fuc(a1-4)]GlcNAc
# Procedure, shortened: as §1
# [29] = biological target: Gal(b1-3)[Fuc(a1-4)]GlcNAc(b1-3)Gal(b1-4)[Fuc(a1-3)]GlcNAc
# Procedure, shortened: as §1
# [30] = biological target: Gal(b1-3)[Fuc(a1-4)]GlcNAc(b1-6)GalNAc
# Procedure, shortened: as §1
# [31] = biological target: Gal(b1-3)[GlcNAc(b1-6)]GalNAc
# Procedure, shortened: as §1
# [32] = biological target: Gal(b1-3)[Neu5Ac(a2-6)]GalNAc
# Procedure, shortened: as §1
# [33] = biological target: Gal(b1-3)[Neu5Ac(a2-6)]GlcNAc(b1-4)Gal(b1-4)Glc
# Procedure, shortened: as §1
# [34] = biological target: Gal(b1-3)[Neu5Ac(b2-6)]GalNAc
# Procedure, shortened: as §1
# Gal(b1-4)Gal = biological target: Gal(b1-4)Gal
# Procedure, shortened: as §1
# [35] = biological target: Gal(b1-4)GalNAc(a1-3)[Fuc(a1-2)]Gal(b1-4)GlcNAc
# Procedure, shortened: as §1
binder,measurement,setting,value
B1,glycan array binding signal (z-score),Gal(a1-6)Glc,-0.512
same,glycan array binding signal (z-score),Gal(b1-2)Gal,-0.692
same,glycan array binding signal (z-score),Gal(b1-3)Gal,0.203
same,glycan array binding signal (z-score),Gal(b1-3)Gal(b1-4)GlcNAc,0.294
same,glycan array binding signal (z-score),Gal(b1-3)GalNAc,-0.183
same,glycan array binding signal (z-score),[1],0.096
same,glycan array binding signal (z-score),[2],-0.522
same,glycan array binding signal (z-score),Gal(b1-3)GalNAc(b1-3)Gal,-1.47
same,glycan array binding signal (z-score),[3],0.446
same,glycan array binding signal (z-score),[4],0.565
same,glycan array binding signal (z-score),[5],0.352
same,glycan array binding signal (z-score),Gal(b1-3)GlcNAc,-0.406
same,glycan array binding signal (z-score),[6],-0.685
same,glycan array binding signal (z-score),[7],-0.281
same,glycan array binding signal (z-score),Gal(b1-3)GlcNAc(b1-2)Man,-0.107
same,glycan array binding signal (z-score),[8],1.31
same,glycan array binding signal (z-score),[9],0.02
same,glycan array binding signal (z-score),[10],-0.351
same,glycan array binding signal (z-score),[11],1.05
same,glycan array binding signal (z-score),[12],-1.43
same,glycan array binding signal (z-score),[13],-0.538
same,glycan array binding signal (z-score),[14],-1.38
same,glycan array binding signal (z-score),[15],1.15
same,glycan array binding signal (z-score),[16],1.82
same,glycan array binding signal (z-score),[17],1.39
same,glycan array binding signal (z-score),[18],0.344
same,glycan array binding signal (z-score),[19],-0.647
same,glycan array binding signal (z-score),[20],-1.29
same,glycan array binding signal (z-score),[21],-0.119
same,glycan array binding signal (z-score),[22],0.043
same,glycan array binding signal (z-score),[23],-0.466
same,glycan array binding signal (z-score),[24],-0.365
same,glycan array binding signal (z-score),Gal(b1-3)GlcNAc6S,-0.273
same,glycan array binding signal (z-score),[25],-0.995
same,glycan array binding signal (z-score),[26],0.756
same,glycan array binding signal (z-score),[27],0.59
same,glycan array binding signal (z-score),[28],-0.63
same,glycan array binding signal (z-score),[29],-0.93
same,glycan array binding signal (z-score),[30],-0.396
same,glycan array binding signal (z-score),[31],0.127
same,glycan array binding signal (z-score),[32],-0.702
same,glycan array binding signal (z-score),[33],-0.853
same,glycan array binding signal (z-score),[34],-0.403
same,glycan array binding signal (z-score),Gal(b1-4)Gal,-0.815
same,glycan array binding signal (z-score),[35],-0.728
